Reference: PubChem BioAssay AID493014 (National Center for Advancing Translational Sciences (NCATS), 2011)
Out of some 340,000 compounds screened, about 170 (0.05%) were called active. This list was built around the results that the source calls inconclusive (neither active nor inactive); the mix of calls is not that of the screen. The call rests on the fitted dose curve; in most records, active means well fitted inhibition curve with a large enough effect in the signal ratio, with a control signal flat (not every such curve was filed as active); inconclusive means small, poorly fitted or top-dose-only effect, or effect the other way, or a change in a side signal; inactive means flat fitted curve, though single readings scatter; the % refers to the signal ratio. Potencies beside an inconclusive call are fits to weak or partial responses and may not hold up.

Test: qHTS Assay to Find Inhibitors of Chronic Active B-Cell Receptor Signaling;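 on activity change, negative = inhibition: plate controls were basal doxycycline-induced cells for no effect and cells given 10 µM MG132 for full effect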
Settings: ABC-DLBCL IkBa-CBG/CBR reporter, luminescence ratio (green luciferase fused to IkBa over red control in TMD8 lymphoma cells), 4 h; activity change, negative = inhibition: at 46.1 µM (top of the series)
Method in brief: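 TMD8 human ABC-DLBCL cells with doxycycline-inducible IκBα–green luciferase fusion and unfused red luciferase, in 0.5% FBS medium; compounds up to 46 uM, 4 h at 37C. Green/red luminescence ratio, filter-overlap corrected, fitted to concentration-response curves.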
Potency means the concentration at half of the fitted maximal effect.

| Structure (SMILES) | activity change, negative = inhibition | Potency |
| --- | --- | --- |
| CC(C)(O)C1=NOC(c2ccccc2)C1 (stereo unspecified) | inconclusive: -14% | – |
| COc1ccc(-c2csc3ncnc(N4CCN(S(=O)(=O)c5cccs5)CC4)c23)cc1 | inconclusive: 2.98% | – |
| CCCC(=O)NC(c1ccccc1)c1c(O)ccc2ccccc12 (stereo unspecified) | inconclusive: -0.54% | – |
| Cc1ccc(NS(=O)(=O)c2cccc(C(=O)NCC(c3ccco3)N3CCCC3)c2)cc1 (stereo unspecified) | inactive | – |
| COc1ccc(NC(=O)c2cccc(N3C(=O)C4CCC(C)CC4C3=O)c2)c(OC)c1 (stereo unspecified) | inconclusive: 376% | – |
| CCCn1c(CN2CCN(c3cccc(Cl)c3)CC2)nc2c1c(=O)n(C)c(=O)n2C | – | inconclusive: 6.51 µM [rising, single point] |
| O=C(CC1Oc2ccccc2NC1=O)NCCCN1CCN(Cc2ccccc2)CC1 (stereo unspecified) | – | inconclusive: 29.1 µM [falling, single point] |
| OCCNc1ncnc2ccc(Br)cc12 | inconclusive: -11.2% | – |
| COc1ccc(-c2cc(C(F)(F)F)nc(S(=O)(=O)CCCC(=O)Nc3cccnc3Cl)n2)cc1OC | inconclusive: 25.2% | – |
| Cc1cccc(NC(=S)Nc2ccccn2)c1 | – | inconclusive: 11.2 µM [falling, partial curve] |
| Cc1sc2nc(CN3CCOCC3)nc(N3CCC(C(N)=O)CC3)c2c1C | inconclusive: -1.61% | – |
| Cc1ccc(NC(=O)/C=C/c2ccc3c(c2)OCO3)nc1 | inconclusive: -1.9% | – |
| COC(=O)CCC(=O)Nc1ccc(NC(C)=O)cc1 | inactive | – |
| O=c1[nH]c(C2CCN(S(=O)(=O)c3ccc(S(=O)(=O)NC4CC4)cc3)CC2)nc2c1nnn2Cc1cccc(F)c1 | inconclusive: -0.0543% | – |
| O=[N+]([O-])c1cc(S(=O)(=O)C(F)(F)F)ccc1N1CCN(c2ccccc2)CC1 | inactive | – |
| CN(C1CCCCC1)S(=O)(=O)c1ccc(SCC(=O)C(C)(C)C)nc1 | inactive | – |
| Cc1cccc(NC(=O)c2ccccc2NC(=O)c2ccco2)c1 | – | inconclusive: 12.6 µM [falling, partial curve, poor fit] |
| C(=N\Nc1ccc2ccccc2n1)/c1ccc2c(c1)OCO2 | – | inconclusive: 5.62 µM [rising, single point] |
| Cc1cccc(NC(=O)CN(C)C(=O)/C=C/c2ccccc2)c1C | inactive | – |
| N/C(=N\OC(=O)Cc1ccc(Cl)cc1)c1ccncc1 | inconclusive: -0.88% | – |
| O=C1C=C(c2ccccc2)OC2(CCCC2)O1 | inconclusive: 6.24% | – |

| Structure (SMILES) | activity change, negative = inhibition | Potency |
| --- | --- | --- |
| O=P(COCCCCCOCP(=O)(c1ccccc1)c1ccccc1)(c1ccccc1)c1ccccc1 | – | inconclusive: 7.94 µM [falling, partial curve] |
| Cc1c(-c2nc(-c3ccc(C(F)(F)F)cc3)no2)n(C)oc1=O | inconclusive: 4.07% | – |
| NC(=O)N/N=C/CCc1ccccc1 | – | inconclusive: 17.8 µM [rising, partial curve, poor fit] |
| Cc1cc(NC(=O)CSc2nnc(-c3cccc(Cl)c3)o2)no1 | inconclusive: 6.07% | – |
| O=C(/C=C/c1ccc(OC(F)F)cc1)Nc1cccc(S(=O)(=O)N2CCOCC2)c1 | – | inconclusive: 31.6 µM [falling, single point] |
| COC(=O)C1=C(C)N(Cc2ccccc2)C(=O)N[C@H]1c1cccs1 | inconclusive: 5.88% | – |
| CC1=C(C(=O)OC2CCCC2)C(c2coc3ccccc3c2=O)C2=C(CCCC2=O)N1 (stereo unspecified) | inactive | – |
| Cc1sc2ncn(CC(=O)Nc3cccc(S(N)(=O)=O)c3)c(=O)c2c1-c1ccccc1 | inconclusive: -0.021% | – |
| Cc1ccc(NC2=C(Cl)C(=O)OC2OC(C)C)cc1 (stereo unspecified) | inactive | – |
| CC(C)(C)OC(=O)N/N=C/c1c[nH]c2ccccc12 | inconclusive: 1.27% | – |
| CCOC(=O)c1c(-c2cccs2)csc1NC(=O)CCCC(=O)O | – | inconclusive: 12.6 µM [falling, partial curve] |
| Cc1ccc(C(C)C)cc1S(=O)(=O)NC1CC(C)(C)NC(C)(C)C1 | inconclusive: -1.91% | – |
| CNc1ncc(C(=O)c2ccc(Cl)c(Cl)c2)s1 | inactive | – |
| CC(OC(=O)c1ccccc1Nc1ccc(SC(F)F)cc1)C(N)=O (stereo unspecified) | inactive | – |
| CCOC(=O)c1sc(NC(=O)CC2OC(=O)c3ccccc32)nc1C (stereo unspecified) | – | inconclusive: 20.6 µM [falling, partial curve] |
| Cn1ccc(C(=O)Nc2cccnc2Cl)n1 | inactive | – |
| COCCn1c(=S)[nH]c2ncccc2c1=O | inactive | – |
| COC(=O)c1sc(NC(=O)COc2c(C)cccc2C)nc1C | – | inconclusive: 11.2 µM [falling, partial curve, poor fit] |
| CCCCNS(=O)(=O)c1ccc(NC(=O)c2c(-c3ccccc3Cl)noc2C)cc1 | inconclusive: -1.67% | – |
| C/C(=N\NC(=O)c1ccccc1OCc1ccc(F)cc1)c1ccccn1 | – | inconclusive: 18.4 µM [falling, single point] |
| O=S(=O)(Cc1ccccc1Cl)NCCOc1ccccc1 | inconclusive: 0.777% | – |

| Structure (SMILES) | activity change, negative = inhibition | Potency |
| --- | --- | --- |
| Cc1ccc(/C=N/NC(=O)c2ccc(-c3ccccc3)cc2)o1 | inactive | – |
| COc1ccccc1-c1cc(C(=O)N2CCN(c3ccccc3OC)CC2)no1 | – | inconclusive: 35.5 µM [rising, single point] |
| COc1ccc(OC)c2c1sc(=NC(=O)C(C)C)n2C | inconclusive: 0.42% | – |
| O=C1CNC(=S)N1c1nc2ccccc2s1 | – | inconclusive: 22.4 µM [falling, partial curve] |
| COc1ccc(OC)c(C2CC(=O)c3c([nH]c(C(=O)OC(C)C)c3C)C2)c1 (stereo unspecified) | – | inconclusive: 2.59 µM [falling, partial curve, poor fit] |
| CCn1c(COc2ccc3c(c2)OCO3)nnc1SCC(=O)c1ccccc1 | inconclusive: 5.84% | – |
| CCOC(=O)c1c(-c2cccs2)csc1NC(=O)CN1CC(C)OC(C)C1 (stereo unspecified) | inactive | – |
| O=C(COc1ccc2c(c1)oc(=O)c1ccccc12)NC(Cc1ccc(Cl)cc1)C(=O)O (stereo unspecified) | inactive | – |
| COc1ccc2cnn(-c3ccccc3C)c(=O)c2c1OC | inconclusive: 14.4% | – |
| CC(C)Sc1ccc([N+](=O)[O-])cc1C(=O)Nc1ccncc1 | inconclusive: 9.04% | – |
| COCCCNC(=O)c1cc(Sc2nnc(C)s2)nc2ccccc12 | inconclusive: 0.0091% | – |
| CN(C)c1ccc(N=Nc2ccc(S(=O)(=O)O)cc2)c2ccccc12 | – | inconclusive: 35.5 µM [rising, single point] |
| CCCN(CC1CC1)C(=O)CSc1nnc(-c2cc(-c3cccs3)nc3ccccc23)o1 | inconclusive: 14.3% | – |
| COc1cccc(NC(=O)CN(C)C(=O)CNC(=O)c2sc3ccccc3c2Cl)c1 | – | inconclusive: 20.6 µM [falling, single point] |
| COc1ccc(Cl)cc1N/C(N)=N/c1nc(C)cc(C)n1 | inconclusive: 0.267% | – |
| Cc1ccc2c(c1)C1CN(C)CCC1N2Sc1ccccc1[N+](=O)[O-] (stereo unspecified) | – | inconclusive: 17.8 µM [falling, partial curve] |
| COc1ccc2cc(C(=O)OC(C)C)sc(=O)c2c1OC | inconclusive: 23.2% | – |
| COc1cccc(NC(=O)c2cc(-c3ccc(C)o3)nc3ccccc23)c1 | inactive | – |
| CC(=O)Nc1ccc(Oc2nc(-c3ccccn3)nc3ccccc23)cc1 | – | inconclusive: 17.8 µM [falling, single point] |
| Cc1c(NC(=O)CCCCCN2C(=O)C3C4C=CC(C4)C3C2=O)c(=O)n(-c2ccccc2)n1C (stereo unspecified) | inconclusive: 4.65% | – |
| Cc1oc(-c2ccc(F)cc2)nc1CN1CCCC(C(=O)N2CCOCC2)C1 (stereo unspecified) | inconclusive: 9.61% | – |

Five of the compounds above, as tab-separated lines:
Structure (SMILES)	activity change, negative = inhibition	Potency
COc1cccc(NC(=O)CN(C)C(=O)CNC(=O)c2sc3ccccc3c2Cl)c1	–	inconclusive: 20.6 µM [falling, single point]
COc1ccc(Cl)cc1N/C(N)=N/c1nc(C)cc(C)n1	inconclusive: 0.267%	–
Cc1ccc2c(c1)C1CN(C)CCC1N2Sc1ccccc1[N+](=O)[O-] (stereo unspecified)	–	inconclusive: 17.8 µM [falling, partial curve]
COc1ccc2cc(C(=O)OC(C)C)sc(=O)c2c1OC	inconclusive: 23.2%	–
COc1cccc(NC(=O)c2cc(-c3ccc(C)o3)nc3ccccc23)c1	inactive	–

Additional structures

| Structure (SMILES) | activity change, negative = inhibition | Potency |
| --- | --- | --- |
| COC(=O)c1cc(COc2ccc3oc(C)c(C(=O)OC)c3c2)c(C)o1 | inconclusive: -12.9% | – |
| Cc1sc2ncn(CC(=O)NCCN(C)C)c(=O)c2c1S(=O)(=O)N1CCC(C)CC1 | – | inconclusive: 0.316 µM [falling, full curve, poor fit] |
| Cc1ccc(CNC(=O)CN2C(=O)c3ccccc3S2(=O)=O)cc1 | inactive | – |
| COc1ccccc1NC(=O)C(C)OC(=O)CN1C(=O)C2CC=CCC2C1=O (stereo unspecified) | inconclusive: 4.63% | – |
| CC1CCCN(S(=O)(=O)c2ccc(NC(=O)CN3C(=O)NC(C)(c4ccccc4)C3=O)cc2)C1 (stereo unspecified) | inactive | – |
| CCOC(=O)Cc1nnc2c(Nc3ccc(Cl)cc3)nc3nonc3n12 | inconclusive: -5.33% | – |
| COC(=O)c1ccccc1S(=O)(=O)N1CCC(C(=O)OCC(=O)c2ccccc2OC)CC1 | inconclusive: 0.252% | – |
| CC1=CN2C(=N)/C(=C\c3cn(CCCOc4ccccc4)c4ccccc34)C(=O)N=C2S1 | inactive | – |
| CCOc1ccc(NC(=O)c2cccc3ccccc23)cc1 | inconclusive: 4.01% | – |
| O=S(=O)(c1ccc(Br)cc1)n1c(Cc2ccccc2)nc2ccccc21 | – | inconclusive: 8.2 µM [falling, partial curve] |
| Brc1cccc(Cn2c(-c3cncs3)nc3ccccc32)c1 | inactive | – |
| CCOC(=O)c1c(C)[nH]c(C)c1C(=O)COC(=O)c1cc(OC)c(OC)cc1OC | inconclusive: -14.5% | – |
| CCOc1ccc(C(=O)Nc2cccc3ncccc23)cc1Cl | inactive | – |
| COc1cccc(OC)c1C(=O)NC(=S)Nc1ccc2c(c1)Cc1ccccc1-2 | inconclusive: 13.9% | – |
| CCOc1cc(/C=C2/NC(=O)NC2=O)cc([N+](=O)[O-])c1O | inconclusive: 6.02% | – |
| CCN1CCN(C(=O)c2ccc3c(c2)S(=O)(=O)c2ccccc2C3=O)CC1 | inconclusive: 4.32% | – |
| COc1ccc(C2SCC(=O)N2CCc2ccc(OC)c(OC)c2)cc1 (stereo unspecified) | inconclusive: 9.71% | – |
| CCOc1ccc(OCCC(=O)Nc2ccc(F)cc2C)cc1 | inconclusive: -1.23% | – |
